{"source": "PubChem BioAssay AID1259308 (NCATS, 2017)", "purpose": "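Genes whose loss raises luciferase production in HEK293 cells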 (primary screen)", "system": "human HEK293 embryonic kidney cells stably expressing firefly luciferase (HEK-CMV-Luc2-Hygro)", "knock-down reagent": "single siRNA against human genes, 0.8 pmol siRNA per well", "timing": "72 h", "measured": "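Luciferase light (ONE-Glo) measured on one replicate plate set and viability (CellTiter-Glo) on the other, scaled to a negative control siRNA, with robust z-scores and luciferase per cell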", "reading the numbers": "total luciferase, z-score: higher = more reporter protein produced", "rule for the call": "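An siRNA counts as active if its total luciferase robust z-score exceeds 3; genes with two or more such siRNAs out of three were retested with fresh siRNAs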", "meaning of the calls": "active = raised luciferase; inactive = no rise", "note": "In all, the deposit lists about 59,000 reagents; below is a part drawn at random. In the full data, about 1,510 (2.6%) are marked active. 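Calls use total luciferase alone and ignore viability, so some active siRNAs may act by altering cell number.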 Reagents against one gene are numbered here. Not all columns of the deposit are shown."}
{"gene symbol": "CIB3", "reagent no.": 1, "total luciferase, z-score": 0.0977, "call": "inactive"}
{"gene symbol": "CIB3", "reagent no.": 2, "total luciferase, z-score": -1.17, "call": "inactive"}
{"gene symbol": "CIB3", "reagent no.": 3, "total luciferase, z-score": 2.81, "call": "inactive"}
{"gene symbol": "HAND2-AS1", "reagent no.": 1, "total luciferase, z-score": 0.159, "call": "inactive"}
{"gene symbol": "HAND2-AS1", "reagent no.": 2, "total luciferase, z-score": -0.613, "call": "inactive"}
{"gene symbol": "HAND2-AS1", "reagent no.": 3, "total luciferase, z-score": 0.159, "call": "inactive"}
{"gene symbol": "DMGDH", "reagent no.": 1, "total luciferase, z-score": 0.682, "call": "inactive"}
{"gene symbol": "DMGDH", "reagent no.": 2, "total luciferase, z-score": -0.964, "call": "inactive"}
{"gene symbol": "DMGDH", "reagent no.": 3, "total luciferase, z-score": 0.614, "call": "inactive"}
{"gene symbol": "HSF4", "reagent no.": 1, "total luciferase, z-score": 0.59, "call": "inactive"}
{"gene symbol": "HSF4", "reagent no.": 2, "total luciferase, z-score": 1.41, "call": "inactive"}
{"gene symbol": "HSF4", "reagent no.": 3, "total luciferase, z-score": -0.903, "call": "inactive"}
{"gene symbol": "ADCY4", "reagent no.": 1, "total luciferase, z-score": -0.77, "call": "inactive"}
{"gene symbol": "ADCY4", "reagent no.": 2, "total luciferase, z-score": 3.25, "call": "active"}
{"gene symbol": "ADCY4", "reagent no.": 3, "total luciferase, z-score": 0.247, "call": "inactive"}
{"gene symbol": "OXGR1", "reagent no.": 1, "total luciferase, z-score": -1.11, "call": "inactive"}
{"gene symbol": "OXGR1", "reagent no.": 2, "total luciferase, z-score": -0.0502, "call": "inactive"}
{"gene symbol": "OXGR1", "reagent no.": 3, "total luciferase, z-score": -0.32, "call": "inactive"}
{"gene symbol": "NFKBIE", "reagent no.": 1, "total luciferase, z-score": 0.00967, "call": "inactive"}
{"gene symbol": "NFKBIE", "reagent no.": 2, "total luciferase, z-score": 1.35, "call": "inactive"}
{"gene symbol": "NFKBIE", "reagent no.": 3, "total luciferase, z-score": 0.264, "call": "inactive"}
{"gene symbol": "TYMP", "reagent no.": 1, "total luciferase, z-score": -0.302, "call": "inactive"}
{"gene symbol": "TYMP", "reagent no.": 2, "total luciferase, z-score": -0.509, "call": "inactive"}
{"gene symbol": "TYMP", "reagent no.": 3, "total luciferase, z-score": 0.275, "call": "inactive"}
{"gene symbol": "SH2D3C", "reagent no.": 1, "total luciferase, z-score": 1.42, "call": "inactive"}
{"gene symbol": "SH2D3C", "reagent no.": 2, "total luciferase, z-score": -1.57, "call": "inactive"}
{"gene symbol": "SH2D3C", "reagent no.": 3, "total luciferase, z-score": 1.34, "call": "inactive"}
{"gene symbol": "GNAL", "reagent no.": 1, "total luciferase, z-score": 0.0778, "call": "inactive"}
{"gene symbol": "GNAL", "reagent no.": 2, "total luciferase, z-score": -0.309, "call": "inactive"}
{"gene symbol": "GNAL", "reagent no.": 3, "total luciferase, z-score": -1.14, "call": "inactive"}
{"gene symbol": "DNAJB9", "reagent no.": 1, "total luciferase, z-score": -0.0389, "call": "inactive"}
{"gene symbol": "DNAJB9", "reagent no.": 2, "total luciferase, z-score": -2.16, "call": "inactive"}
{"gene symbol": "DNAJB9", "reagent no.": 3, "total luciferase, z-score": 0.546, "call": "inactive"}

Part of the list above, reformatted.
DMGDH #2
- total luciferase, z-score: -0.964
- call: inactive

DMGDH #3
- total luciferase, z-score: 0.614
- call: inactive

HSF4 #1
- total luciferase, z-score: 0.59
- call: inactive

HSF4 #2
- total luciferase, z-score: 1.41
- call: inactive

HSF4 #3
- total luciferase, z-score: -0.903
- call: inactive
